Measurements: US9585905B2, “Sweet taste receptor antagonist compositions” (Four LLC, priority 2014, dated 2017)

Test system: sweet taste (10% sucrose reference)
Assay: Duration of sweet taste blockade: sensory panelist rates sweetness intensity (SI) of 10% sucrose after 5 min oral exposure to sample
Type: in vivo, human
Description: A standard method was developed to quantify the duration of sweet taste blockade for the gymnemic acid compositions of the present invention. […] In all cases, sucrose was used as the sweetener in sweet taste blockade quantification. Thus, 10%, 8%, 6%, 4%, and 2% (w/v) sucrose solutions in reverse osmosis (RO) purified water were freshly prepared and, at the beginning of each experiment, 15 mL samples of each sucrose solution were used to calibrate sensory panelist on sweetness intensity. The sensory panelist is described as a person with training in sensory evaluation with at least 1 year of experience as a sensory panelist in the area of gustatation, and preferably with training in descriptive analysis. Standard scaling methodology was used for quantification of sweetness intensity (SI) on the following scale: • 10% sucrose=10, • 8% sucrose=8, • 6% sucrose=6, • 4% sucrose=4, • 2% sucrose=2, and • 0% sucrose=0.
Following panelist calibration with the sucrose reference standards, the panelist rinsed their mouth with 15 mL RO water and the sweetness inhibitor sample in 15 mL RO water was then immediately taken into the mouth and gently agitated for 5 minutes. The sweet taste inhibitor sample was then expectorated and a 15 mL sample of the 10% sucrose reference solution was then immediately re-tasted, perceived SI within 15 seconds was rated on the 0-10 scale, the sample expectorated, and the mouth rinsed vigorously with 15 mL RO water. The 10% sucrose sample was then re-tasted every 15 min and SI rated. The panelist was asked to make comments on the observations of non-sweet taste attributes at each sucrose reference tasting interval.

Measured: Comments & Observations

B1: Miraculin (protein, UniProt P13087 30-220, looked up)
Miraculin: DSAPNPVLDIDGEKLRTGTNYYIVPVLRDHGGGLTVSATTPNGTFVCPPRVVQTRKEVDHDRPLAFFPENPKEDVVRVSTDLNINFSAFMPCRWTSSTVWRLDKYDESTGQYFVTIGGVKGNPGPETISSWFKIEEFCGSGFYKLVFCPTVCGSCKVKCGDVGIYIDQKGRRRLALSDKPFAFEFNKTVYF
Strong sweetness and no other taste.: panelist comments at 0 min tasting of 10% sucrose | panelist comments at 15 min tasting of 10% sucrose | panelist comments at 30 min tasting of 10% sucrose | panelist comments at 45 min tasting of 10% sucrose | panelist comments at 60 min tasting of 10% sucrose | panelist comments at 75 min tasting of 10% sucrose | panelist comments at 90 min tasting of 10% sucrose | panelist comments at 105 min tasting of 10% sucrose | panelist comments at 120 min tasting of 10% sucrose
